For one substance, binding results are on record in article doi:10.1101/2023.12.13.571443.

These are yes or no findings as the source states them, for the method shown. In cells and extracts the contact can be indirect. Binding can be weak; no strength is given. Where a sequence is shown, tags or fusion partners need not be part of it.

For the test, the target named is T1, HopF2Pto-HA (Pseudomonas syringae pv. tomato DC3000) (UniProt Q88A90).
T1 sequence: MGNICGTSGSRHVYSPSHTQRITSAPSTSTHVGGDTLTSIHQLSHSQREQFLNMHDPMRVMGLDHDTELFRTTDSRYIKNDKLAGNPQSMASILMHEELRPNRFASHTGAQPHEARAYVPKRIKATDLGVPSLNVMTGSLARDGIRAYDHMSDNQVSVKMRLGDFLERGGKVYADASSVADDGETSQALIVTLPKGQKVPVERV
Kind of test: co-IP.

For “QIAN SHOU KINASE1 (QSK1), endogenous (from UniProt Q9M8T0) (receptor)”, the binding result was “binds”.
